The other results are listed elsewhere or left out.
B1: il10ra_site1_normal_mot_HHH_b1_05357_000000034_0001_23_39_H_._HHH_b2_03756_0001_0000100003_0000001_0_af2pred_0001 (protein)
chain: SSSSDEEEEVEELLRRAEELAKEGDRHEVAYLLIRAFAVASRLGDPELERLVEEVAKRLLSSSSS
B2: il10ra_site1_normal_mot_HHH_b2_00475_000000107_0001_44_57_H_._HHH_b1_00174_af2_0001_0000200014_0000001_0 (protein)
chain: SSSSDEEEQRVAEILYRALRALFNGDPERAEELLEEARKIAEENNDEELQRYVEILRHFVSSSSS
B3: il10ra_site1_normal_mot_HHH_b1_04693_000000238_0001_19_36_H_._HHH_b1_01019_0001_0000400025_0000001_0 (protein)
chain: SSSSSDKEEEAEELLEELEELLKHVTAQERYELVEKVIKFVLRLGNAQLARRAVELFIEVSSSSS
B4: il10ra_site1_normal_mot_HHH_b2_07784_af2_000000103_0001_19_36_H_._HHH_b1_02165_af2_0001_0000400013_0000002_0 (protein)
chain: SSSSSEYYEEVKRLLQEVVELLRNGDPEEAEKLLRELQELVEENNDDATRAQVEFLLELVRSSSS
B5: il10ra_site1_sap_4_mot_HHH_b1_03250_000000283_0001_1_15_H_._a02a9d7a4e683ace6aeae6907a935438_0001_af2_0001_0000200003_0000001_0_0001_af2pred_0001 (protein)
chain: SSSSDLEERARLTLRFIEWLLKEGDPEAAERLLRALKELIERLGDEELEEELERLEELLNSSSSS
B6: il10ra_site1_normal_mot_HHH_b1_06789_af2_000000041_0001_1_20_H_._HHH_b2_07878_af2_0001_0000400014_0000001_0_af2pred_dldesign_0_af2pred (protein)
chain: SSSSSAAKLYVDQALRAARILKEAGDEEGVAKTLEKAREIAENAKDPELIARVAEEEARLRSSSS
B7: il10ra_site1_sap_16_mot_HHH_b1_00999_000000080_0001_41_55_H_._HHH_b2_06260_0001_0000300019_0000001_0_0001_af2pred_0001 (protein)
chain: SSSSNEEEKVLQLLLEVARLLLEGNKEEAEEILEEARRIAEELGDPKLRLSVRALEYTIRSSSSS
B8: il10ra_site1_normal_mot_HHH_b1_01821_000000158_0001_23_39_H_._HHH_b2_04674_0001_0000300027_0000002_0 (protein)
chain: SSSSDEEEERLEELLRELKELVEEGDEEEFRQVALELLQLAEENNDQEVLQRLWELFKLLFSSSS
B9: il10ra_site1_normal_mot_HHH_b1_00999_000000080_0001_41_55_H_._HHH_b2_04868_0001_0000200013_0000001_0 (protein)
chain: SSSSDEEELQERVEELLEEAREIEDPREAARLLLEATQLALEGQDPELLQLVWEVVKELGSSSSS
B10: il10ra_site1_normal_mot_HHH_b1_05056_000000217_0001_1_20_H_._HHH_b1_00422_0001_0000300026_0000002_0 (protein)
chain: SSSSSSSVEEEVEELLEEAKEVDQEERAELLLRALRFAWKHNDEELLRLIWEVVQELASSSSSSS
B11: il10ra_site1_sap_27_mot_a237db91e5dae9a764afea8a79d812a9_0001_000000122_0001_15_30_H_._HHH_b2_03929_af2_0001_0000100002_0000001_1_0001_af2pred_dldesign_0_af2pre … (protein)
chain: SSSSSSDPRAEVDALLEEARKEEDREKRSHLLLQAYGLAVKAQDPELVARVRAVARELASSSSSS
B12: il10ra_site1_sap_17_mot_6805e7cfcec1a9f49da1e1cd80eb4878_0001_af2_000000116_0001_1_14_H_._a539779be5f6f4376e8130ba938be24e_0001_0001_0000200011_0000002_0_0001_a … (protein)
chain: SSSSSEEEEELEKLEEELERLLEEGDEEEAFKVAIRLAILAFKLGDEEALKKVAEVLRRLSSSSS
B13: il10ra_site1_sap_22_mot_HHH_b2_05343_000000235_0001_19_35_H_._1c4a7000c98f6bc3c941df408db38b63_0001_0001_0000300003_0000002_0_0001 (protein)
chain: SSSSSSDEEAFELLREAAEAAREDPEEAEEILERAREIAEEAGNELLLWQIEFLLRRLSSSSSSS
B14: il10ra_site1_sap_25_mot_9c3e5e2d2b9ffb70dc788f52fbfab6d5_0001_1_000000198_0001_1_14_H_._HHH_b1_04864_0001_0000300029_0000001_0_0001 (protein)
chain: SSSSDEELQRALELVLEAFRLALRGDPEEARRVLEEALELAEEANDERLAEQIRAMLRAVKSSSS
B15: il10ra_site1_normal_mot_39ab2cb694c8b9c1dc7e65c0d672c93e_0001_000000036_0001_53_65_H_._HHH_b1_03020_0001_0000400011_0000001_0 (protein)
chain: SSSSSSEEFEERVEELLERLHEVSPEERYKLLQEALRLAYQARNEELLQEIWEAAKKLAKSSSSS
B16: il10ra_site1_sap_19_mot_HHH_b2_05984_000000071_0001_38_52_H_._HHH_b2_02479_0001_0000300006_0000001_0_0001_af2pred_dldesign_0_af2pred (protein)
chain: SSSSDPEREALEKALRYLKFLIEAGDKEAVEKYLAKLRFLAEQLKDAEAEKELAELEKKLSSSSS
B17: il10ra_site1_normal_mot_HHH_b2_06979_000000158_0001_42_57_H_._HHH_b2_06735_af2_0001_0000300023_0000001_0 (protein)
chain: SSSSDAELAQEAIRIIREAAELFRNGNPEEARELLEELREELEKAGNRLLLINVEYLLRDLSSSS
B18: il10ra_site1_sap_21_mot_HHH_b2_00612_000000251_0001_1_14_H_._HHH_b2_02757_af2_0001_0000400030_0000001_0_0001_af2pred_0001 (protein)
chain: SSSSNEEAKRAAEFFVKAAKQLEDPEKRRLTLRFAEHLAKEANDEELEREIEELLEELEKSSSSS
B19: il10ra_site1_normal_mot_HHH_b2_00475_000000107_0001_44_57_H_._HHH_b2_01638_af2_0001_0000300017_0000002_0 (protein)
chain: SSSSEAEQRVAELLFRALRLLAEGNPEEAREVVEEAHELAEENNDEELRKYVEILLHFIESHSSS
B20: il10ra_site1_normal_mot_HHH_b1_08356_000000013_0001_43_57_H_._HHH_b2_03796_0001_0000100007_0000001_0_af2pred_0001 (protein)
chain: SSSSSSSELERLLEEIEEALERGDPQEALRLSLEAARLAAELNDHEVLRELQELLEEIFSSSSSS
B21: il10ra_site1_normal_mot_HHH_b1_02168_af2_000000274_0001_1_19_H_._HHH_b2_02103_0001_0000500035_0000002_0_af2pred_0001 (protein)
chain: SSSSSSERQVRLRVEVLLWFAEFSNNPEAVKQALEMAEEIARENNDPELEELVEEVKRRLSSSSS
B22: il10ra_site1_normal_mot_HHH_b2_07579_000000275_0001_1_19_H_._HHH_b2_02232_0001_0000300044_0000001_0 (protein)
chain: SSSSDLSEEVFKLIREAAELLRKGNPEEAEKVLEKAEELAQEAGNEVFRFAIRFLLRDIEESSSS
B23: il10ra_site1_normal_mot_HHH_b1_04693_000000238_0001_19_36_H_._HHH_b2_06085_af2_0001_0000700026_0000002_0 (protein)
chain: SSSSSDQELYELIRELIELLLEGDEEEIERLEEEIEKLAKELNNRVLLFVARAARRLQEKSSSSS
B24: il10ra_site1_normal_mot_HHH_b1_07527_000000076_0001_1_15_H_._HHH_b2_06940_af2_0001_0000100005_0000001_1 (protein)
chain: SSSSDERTDEVYKLIREAMELARNGNPEEAEKVLEEAKHIAEEAGNYAALFSIRHLERDLKSSSS
B25: il10ra_site1_sap_17_mot_HHH_b2_01705_af2_000000069_0001_44_57_H_._HHH_b2_04738_af2_0001_0000200006_0000001_1_0001 (protein)
chain: SSSSSSDVEELLEELEELLEQGNREEALKVLQEALRLAYQRSDPELLQLLWEIARRLGSSSSSSS
B26: il10ra_site1_normal_mot_HHH_b2_08144_af2_000000046_0001_38_52_H_._HHH_b1_08314_af2_0001_0000400033_0000001_0_af2pred_dldesign_0_af2pred (protein)
chain: SSSSSEKIEEIVRLLREAALLLSEGKPEEAKELVEKALKLAEELGDEILKHTAEFLLSRVSSSSS
B27: il10ra_site1_sap_19_mot_1f0bf248c09923a0581b66a675a8b92c_0001_af2_000000188_0001_52_65_H_._ed672b822448df934975055ed07e5099_0001_1_0001_0000300010_0000001_1_000 … (protein)
chain: SSSSSEDEREVERLLEEAKEAAKRDPKRASYLLTRAFAIAAHSNNEELKELVHEVAQELTHSSSS
B28: il10ra_site1_normal_mot_HHH_b2_04275_000000272_0001_20_36_H_._HHH_b1_02339_af2_0001_0000300026_0000001_1 (protein)
chain: SSSSTQEVYELLEELSKLIHEGDEEEFEKLFEEIEKLIKELGNENMRAVLESLERLFKANKSSSS
B29: il10ra_site1_normal_mot_HHH_b2_00622_af2_000000153_0001_40_57_H_._1ad9cd31332199d645683f25bccb3f2f_0001_af2_0001_0000400005_0000001_0 (protein)
chain: DEYVKRAVRFALRLPDPERREKLLRAALQLAERLGDPIRELIEQLIEALRRGDPELEREISEELR
B30: il10ra_site1_sap_19_mot_HHH_b1_03685_af2_000000224_0001_1_18_H_._HHH_b1_01544_af2_0001_0000300003_0000001_0_0001 (protein)
chain: SSSSSDEEEAEQIFEEARRLAEELGNRAARFLVRQALKAYRLTGDPKVLEIVERLLRILRSSSSS
B31: il10ra_site1_sap_17_mot_HHH_b1_04771_000000013_0001_40_56_H_._HHH_b2_03279_0001_0000200007_0000001_0_0001 (protein)
chain: SSSSDEFERLMELIEEAMELHADGNEEEAEKVLEEAEELAEELNNDIVRRLLEKLLRKLGSSSSS
B32: il10ra_site1_normal_mot_HHH_b1_05357_000000034_0001_23_39_H_._HHH_b2_02453_0001_0000600026_0000001_0_af2pred_0001 (protein)
chain: SSSSDVEEELEELLEEAKRIEDRLRANYVLARAFALATKRRDPELEEFVEEAAKRIVEEGSSSSS
B33: il10ra_site1_normal_mot_HHH_b2_08144_af2_000000046_0001_38_52_H_._HHH_b2_07064_af2_0001_0000100006_0000001_0 (protein)
chain: SSSSDEERREVYELSRRAAELHHDGNEEEAQELLERARELAEELNNPLMLIQVEFLLRLISSSSS
B34: il10ra_site1_sap_20_mot_HHH_b1_05609_af2_000000134_0001_1_18_H_._HHH_b1_01684_0001_0000400040_0000002_0_0001 (protein)
chain: SSSSDEEEERLRELLEELEELVEEGDLERFAKVAQEALRLAFRLGDEEVLQRLFELVERIASSSS
B35: il10ra_site1_sap_20_mot_HHH_b1_01082_af2_000000031_0001_3_19_H_._HHH_b1_04169_0001_0000200031_0000001_0_0001 (protein)
chain: SSSSTYEELKRLVEEILEAIRNGDPELARELLEELQKLIEEKGDWAARFTLELLERALENSSSSS
B36: il10ra_site1_normal_mot_HHH_b2_00273_000000062_0001_23_39_H_._HHH_b2_07916_af2_0001_0000100002_0000001_0 (protein)
chain: SSSSSEEEEKLEELVKELEELVEEGDEEKVLELALRAIQLAFELSDQEVLQRLHELVRSLQSSSS
B37: il10ra_site1_normal_mot_e16fbc155443e7b5a8f44372f038f9e6_0001_1_000000271_0001_16_33_H_._HHH_b2_03173_0001_0000100001_0000001_0 (protein)
chain: SSSSDVEERLEELVEQLVEELGLSEEEEKALRLIARLLLLAGLDPRWVERSVEYIARQNAKSSSS

target: il10ra, Q13651; experiment: yeast display titration

Apparent Kd, inactive:
B1 no binding seen
B2 no binding seen
B3 no binding seen
B4 no binding seen
B5 no binding seen
B6 no binding seen
B7 no binding seen
B8 no binding seen
B9 no binding seen
B10 no binding seen
B11 no binding seen
B12 no binding seen
B13 no binding seen
B14 no binding seen
B15 no binding seen
B16 no binding seen
B17 no binding seen
B18 no binding seen
B19 no binding seen
B20 no binding seen
B21 no binding seen
B22 no binding seen
B23 no binding seen
B24 no binding seen
B25 no binding seen
B26 no binding seen
B27 no binding seen
B28 no binding seen
B29 no binding seen
B30 no binding seen
B31 no binding seen
B32 no binding seen
B33 > 959 nM
B34 no binding seen
B35 no binding seen
B36 no binding seen
B37 no binding seen

Fetched one by one from the list above, two records:
Apparent Kd, inactive:
B14 no binding seen
B5 no binding seen
